# In all, about 33,000 sequences were measured (“E-score (-0.5 to 0.5)”: median about -0.0034, highest 2% from about 0.25 on). Some of the results follow.
# Target: T1, Yap3 (UniProt P38749)
# T1 sequence: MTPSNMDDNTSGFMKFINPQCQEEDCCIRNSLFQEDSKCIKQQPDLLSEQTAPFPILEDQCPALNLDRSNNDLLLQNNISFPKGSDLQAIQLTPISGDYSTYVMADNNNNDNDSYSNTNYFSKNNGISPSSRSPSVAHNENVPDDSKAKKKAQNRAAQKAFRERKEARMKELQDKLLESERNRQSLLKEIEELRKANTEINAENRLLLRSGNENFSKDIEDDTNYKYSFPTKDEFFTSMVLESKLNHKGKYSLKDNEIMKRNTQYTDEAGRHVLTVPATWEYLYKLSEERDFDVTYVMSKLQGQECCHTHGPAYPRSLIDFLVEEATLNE
# Experiment: PBM E-score (8-mer binding enrichment) (E-score (-0.5 to 0.5)); higher = stronger / more preferred TF binding
# Conditions: protein concentration: 100 nM; construct: GST-full length
# Outline: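 The E-score, a modified Wilcoxon-Mann-Whitney statistic, was computed by the Universal PBM Analysis Suite for every ungapped eight-base word pooled with its reverse complement. Scans behind it were normalised with masliner after bound GST-tagged yeast transcription factors were detected with fluorescent anti-GST. The proteins, at about 100-200 nM, had been applied to universal all-10-mer Agilent arrays made double-stranded by primer extension.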
row,Sequence,PBM E-score
1,AGCAGCGA,0.0396
2,ACGACATA,-0.0021
3,CTTAATCA,0.166
4,AAACGGGT,0.019
5,GTAAGGGA,-0.00155
6,GCAAACCC,-0.166
7,CGCGGCAC,0.0242
8,AAAATTCC,0.0775
9,GTTTCCCA,0.128
10,GATGCGAC,-0.146
11,CACGAAGC,0.013
12,ACTTGCCT,-0.106
13,GCTCAACA,-0.0503
14,AAGCGACT,0.00285
15,ATGACAAC,0.189
16,GAAACGTA,0.162
17,CCGAGGAC,-0.141
18,GAACAGCA,0.104
19,ACAGTCGT,0.0107
20,GTGGCGAA,-0.0471
21,AGGACCTC,-0.0741
22,GGTTGTCA,0.078
23,AAGACTCT,0.0514
24,TGCATAAA,0.0703
25,CCGACTTC,-0.0421

row,Sequence,PBM E-score
1,ACGGGGTA,-0.251
2,AGTTCCGA,0.045
3,ACTTCGTC,-0.0104
4,GCATTTGA,0.0726
5,CTACCACA,-0.0927
6,CATGGCGA,0.00993
7,ATGTTGGG,-0.109
8,ATATGACA,0.166
9,CCACTCAA,0.115
10,CCGCCTGC,-0.278
11,ATTCGACA,-0.0426
12,AGGACGGC,-0.178
13,AGCCGCGG,-0.0639
14,ACACCTTC,0.0874
15,GCTAGGCA,-0.242
16,GGGGGAGA,-0.121
17,CCAGCTGA,0.0871
18,CATAAAAC,0.0691
19,AGGAAGGA,-0.218
20,CGGGTTCC,-0.151
21,AACTGAAC,-0.0163
22,AACCCTTA,0.224
23,TACAGCAA,0.0775
24,CTACGCAG,-0.0993
25,CGTCTGGC,-0.0378

row,Sequence,PBM E-score
1,AAACGGGG,-0.058
2,ATACACAA,0.136
3,CCGGCAGC,-0.241
4,AGGCTCCG,0.0437
5,ATCGCAGC,-0.0499
6,GCTGTAAA,-0.00901
7,TCACAACA,0.138
8,GAATTTAA,0.118
9,GTCGCCAA,-0.0746
10,GATATTGA,0.15
11,TCGAGTCA,-0.126
12,TAGAAACA,0.105
13,AGGTACAG,-0.00238
14,CATCTGTA,0.0164
15,AGTGGCTC,-0.0709
16,AAGAACTA,0.115
17,CACCAACA,-0.0286
18,CGTCTTAG,-0.335
19,AACTCAGG,-0.0637
20,CGCTGTAG,-0.0649
21,ATAGCAGG,-0.0116
22,ACGCGGAG,-0.0326
23,CGGTCCCC,-0.316
24,GACCAGAC,-0.179
25,GGGCCGTA,-0.0817

# A second format for part of the listing above:
row	Sequence	PBM E-score
23	CGGTCCCC	-0.316
24	GACCAGAC	-0.179
25	GGGCCGTA	-0.0817

# The results go on:

row,Sequence,PBM E-score
1,AGGAGATA,0.001
2,GCCTCTGA,-0.174
3,AAGAGTCC,-0.24
4,ATTTAGGA,0.0424
5,CAGGCACC,-0.307
6,ATAATGAA,0.25
7,AATAATTC,0.263
8,ATCCCTGC,-0.206
9,AAATTAGG,0.196
10,AGGACTAC,-0.137
11,ACCCAGAA,0.158
12,CCGCTCTC,-0.26
13,ACATGCCA,0.0349
14,CTCGTCAG,-0.00282
15,TGACGTAA,0.368
16,AGGATTTG,0.0994
17,CGCCTTGC,-0.108
18,ACAAAAGA,0.169
19,GAGCGGTA,-0.123
20,CTTCGTCC,-0.13
21,AACCATCT,-0.0615
22,AGTTTAGG,-0.142
23,CACGATGC,-0.221
24,ATGGGTAC,0.028
25,TAAAGCGA,0.15

row,Sequence,PBM E-score
1,TAAATTTA,0.26
2,CGATAATA,0.131
3,GATCACTA,-0.0326
4,AACGTCCG,-0.0404
5,TCTTGTCA,-0.0704
6,CGTCCGTC,-0.228
7,AGTCCGCA,-0.106
8,CACTCCCA,-0.0497
9,AACTAAAA,0.148
10,AAACTACG,0.0264
11,TGGTGTAA,0.0619
12,ATTACAAT,0.125
13,ATTCGTCG,0.0261
14,AACGTATA,0.222
15,CGCATGAG,-0.114
16,GGACTACA,-0.0458
17,GCTGATAA,0.044
18,CGTTCGAA,0.253
19,AATGCAGA,0.0589
20,CCCCTCGC,-0.261
21,CATAGATC,-0.0584
22,CGGAAAAC,0.101
23,GATCACCA,0.00924
24,ACGCAACA,0.0884
25,CACCAGCA,-0.0503

# 5 entries picked at random from the list so far:
row,Sequence,PBM E-score
4,AAACGGGT,0.019
21,AGGACCTC,-0.0741
1,AGCAGCGA,0.0396
17,CCGAGGAC,-0.141
15,TGACGTAA,0.368

# Following part:

row,Sequence,PBM E-score
1,CTCAGCAC,-0.065
2,ATGGCTGG,-0.123
3,ACATCCGT,0.058
4,ATCAAGGC,0.00014
5,CCGGGGTC,-0.238
6,CCTTCGCA,-0.193
7,GTGGAGAA,0.0437
8,TACGCGTA,0.0111
9,GTGATGCA,0.0888
10,GTTCCCTA,-0.14
11,ACTACGAA,0.099
12,GCTACCTA,0.0412
13,AAACGGCC,-0.106
14,CGGGTTGA,-0.139
15,CCTGGAAA,-0.00843
16,ATTTAGTG,0.204
17,AGAGTCTC,-0.0727
18,CCGCAATC,0.0307
19,AGGGGATA,-0.0149
20,CCTTAACA,-0.014
21,ACGGTTAC,0.0173
22,ATAGCACA,0.0106
23,CTTGGGAC,-0.238
24,CGTAAACG,-0.134
25,CTACTCCC,-0.0178

row,Sequence,PBM E-score
1,ATGATATA,0.167
2,AGGTGTAT,0.209
3,ATACAAAT,0.173
4,GCCCCCGA,-0.324
5,ATTTCTTA,0.155
6,ACTGTTGG,-0.122
7,AGACGAAT,0.0472
8,AAGCATCG,-0.0188
9,ATCTTCCG,0.0919
10,ACCGATCT,0.0212
11,CGATGAAG,0.012
12,TAATAGCA,0.0467
13,TAATGCAA,0.0323
14,ATCTCTCC,-0.0209
15,AAGACGAA,0.153
16,CAAATATG,0.131
17,CTAACCAG,0.0215
18,CCCTTTAG,-0.145
19,CTACTAGA,0.0578
20,CAGCGCTG,0.0656
21,CCGTAGGA,-0.138
22,GATCAATC,-0.0277
